Single values of this set are uncertain.
These molecules were tested on Danio rerio embryo (assay: lowest lethal concentration (of 2, 10, 50 µM tested), 10-36 hpf treatment; higher = less toxic). Details: treatment window: 10-36 hpf.
In the case of CSC[C@H]1O[C@@H](n2cnc3c(N)ncnc32)[C@H](O)[C@@H]1O [Methylthioadenosine], the lowest lethal concentration is reported as > 50 µM.
With Nc1c(C(=O)c2ccccc2)sc2[nH]c(=O)c(C(=O)O)cc12 the lowest lethal concentration was > 50 µM.
CCOc1ccc(Nc2nc(-c3c(C)nc4ccccn34)cs2)cc1 [JK 184] showed a lowest lethal concentration of 2 µM.
For CC(C)(C)n1nc(-c2ccc(Cl)cc2)c2c(N)ncnc21 [PP2], the lowest lethal concentration was > 50 µM.
Molecule CCCCCCCCCCCCCC(=O)O[C@@H]1[C@@H](C)[C@@]2(O)[C@@H](C=C(CO)C[C@]3(O)C(=O)C(C)=C[C@@H]23)[C@@H]2C(C)(C)[C@]12OC(C)=O [Phorbol 12-myristate 13-acetate] has a lowest lethal concentration of 10 µM.
In the case of CC(C(=O)Nc1cccc(/N=C/c2c(O)ccc3ccccc23)c1)c1ccccc1 (stereo not drawn) [Salermide], the lowest lethal concentration is reported as > 50 µM.
For O=c1[nH]c2ccccc2n1C1CCN(CCCC(c2ccc(F)cc2)c2ccc(F)cc2)CC1 [Pimozide], the lowest lethal concentration was > 50 µM.
In the case of CC(C)(Oc1ccc(CCNC(=O)c2ccc(Cl)cc2)cc1)C(=O)O [Bezafibrate], the lowest lethal concentration is reported as > 50 µM.
With O=C(c1ccc(Cl)cc1Cl)n1nnc2ccccc21 [ITSA1] the lowest lethal concentration was > 50 µM.
With CCc1cc(-c2n[nH]c(C)c2-c2ccc3c(c2)OCCO3)c(O)cc1O the lowest lethal concentration was > 50 µM.
In the case of C=CCNC1=C2C[C@@H](C)C[C@H](OC)[C@H](O)[C@@H](C)/C=C(\C)[C@H](OC(N)=O)[C@@H](OC)/C=C\C=C(/C)C(=O)NC(=CC1=O)C2=O [Tanespimycin], the lowest lethal concentration is reported as > 50 µM.
C[C@@H](NC(=O)c1cc(C(=O)N[C@@H](Cc2ccccc2)[C@H](O)CNC2CC2)cc(N(C)S(C)(=O)=O)c1)c1ccccc1 [BACE-1 Inhibitor] was tested, and the lowest lethal concentration was > 50 µM.
In the case of C[C@@H](N)[C@H]1CC[C@H](C(=O)Nc2ccncc2)CC1, the lowest lethal concentration is reported as > 50 µM.
With Cc1ccccc1N1C(=O)/C(=C/C=C/c2ccccc2)SC1=S [IMB-10] the lowest lethal concentration was > 50 µM.
NC(=O)c1ccc(-c2nc(-c3ccccn3)c(-c3ccc4c(c3)OCO4)[nH]2)cc1 was tested, and the lowest lethal concentration was > 50 µM.
In the case of Nc1ncnc2c1c(-c1ccc(Oc3ccccc3)cc1)cn2C1CCCC1 [Lck Inhibitor], the lowest lethal concentration is reported as > 50 µM.
O=C1Nc2ccc3ncsc3c2/C1=C/c1cnc[nH]1 [PKR Inhibitor] gave a lowest lethal concentration of 50 µM.
In the case of COc1ccc(COc2ccc(Cc3cnc(N)nc3N)cc2OC)cc1 [GW2580], the lowest lethal concentration is reported as > 50 µM.
In the case of O=C1NC(=O)C(c2cn(CCCO)c3ncccc23)=C1c1cnccn1 [GSK-3beta Inhibitor XI], the lowest lethal concentration is reported as > 50 µM.
For c1ccc(-c2cnc(Nc3ccc(OCCN4CCCC4)cc3)s2)cc1 [Flt-3 Inhibitor III], the lowest lethal concentration was > 50 µM.
For CC#C[C@]1(O)CC[C@H]2[C@@H]3CCC4=CC(=O)CCC4=C3[C@@H](c3ccc(N(C)C)cc3)C[C@@]21C [Mifepristone], the lowest lethal concentration was > 50 µM.
O=C1Cc2c([nH]c3ccc(Br)cc23)-c2ncccc2N1 [1-Azakenpaullone] was tested, and the lowest lethal concentration was 50 µM.
In the case of O=c1[nH]c2ccccc2n1C1CCN(Cc2ccc(-c3[nH]c4cc5ncnc5cc4nc3-c3ccccc3)cc2)CC1 [Akt inhibitor VIII], the lowest lethal concentration is reported as > 50 µM.
COC[C@@H]([C@H](O)[C@H](O)C(=O)NCC[C@H](C)c1nc(/C=C/C[C@@H]2O[C@]3(C[C@@H](O)[C@@H]2C)O[C@H]([C@H](C[C@H](O)[C@H](C)[C@H](O)[C@H](C)/C=C(C)/C(C)=C/C=C/C(C)=C\C#N)OC)[C@H](OP(=O)(O)O)C3(C)C)co1)N(C)C [Calyculin A] gave a lowest lethal concentration of 50 µM.
For O=c1cc(N2CCOCC2)nc2c3ccccc3ccn12 [Compound 401], the lowest lethal concentration was > 50 µM.
For O=C1Nc2ccc(I)cc2/C1=C/c1cc(Br)c(O)c(Br)c1 [GW-5074], the lowest lethal concentration was > 50 µM.
O=Nc1c(-c2c(O)[nH]c3cc(Br)ccc23)[nH]c2ccccc12 [BIO] was tested, and the lowest lethal concentration was > 50 µM.
With CCc1ccc(S(=O)(=O)c2ccccc2)cc1S(=O)(=O)NCCCN(C)C [sFRP-1 Inhibitor] the lowest lethal concentration was > 50 µM.
CO[C@H]1C[C@@H]2CC[C@@H](C)[C@@](O)(O2)C(=O)C(=O)N2CCCC[C@H]2C(=O)O[C@H]([C@H](C)C[C@@H]2CC[C@@H](O)[C@H](OC)C2)CC(=O)[C@H](C)/C=C(\C)[C@@H](O)[C@@H](OC)C(=O)[C@H](C)C[C@H](C)/C=C/C=C/C=C/1C [Rapamycin] was tested, and the lowest lethal concentration was > 50 µM.
For COc1cc2ncnc(Nc3ccc(Cl)cc3Cl)c2cc1OC [Ste11 MAPKKK Activation Inhibitor], the lowest lethal concentration was > 50 µM.
In the case of Nc1ncnc2nc(-c3ccc(N4CCOCC4)nc3)cc(-c3cccc(Br)c3)c12 [Adenosine Kinase Inhibitor], the lowest lethal concentration is reported as > 50 µM.
In the case of CC(=O)O[C@@H]1[C@@H](OC(C)=O)[C@@H](O)[C@H](Oc2c(-c3ccc(O)cc3)oc3cc(O)cc(O)c3c2=O)O[C@H]1C [SL 0101-1], the lowest lethal concentration is reported as > 50 µM.
With Cc1c(C)c2c(c(C)c1O)CCC(C)(C(=O)O)O2 (stereo not drawn) [Trolox] the lowest lethal concentration was > 50 µM.
O=C(N/N=C/c1ccc([N+](=O)[O-])o1)c1ccc(O)cc1 [Nifuroxazide] was tested, and the lowest lethal concentration was > 50 µM.
Cc1cc2occ(CN(C)CCN(C)Cc3cn(-c4cccc(C(F)(F)F)c4)c4ccccc34)c(=O)c2cc1C [TNF-alpha Inhibitor] was tested, and the lowest lethal concentration was 50 µM.
Cc1ccc(NC(=O)c2cccc(N(C)C)c2)cc1NC(=O)c1ccc(O)cc1 was tested, and the lowest lethal concentration was > 50 µM.
In the case of COc1ccc(S(=O)(=O)N(CCO)c2ccccc2CN(C)CC=Cc2ccc(Cl)cc2)cc1 [KN-93], the lowest lethal concentration is reported as > 50 µM.
COc1cc2ncnc(Nc3cccc(Cl)c3)c2cc1OC [AG 1478] was tested, and the lowest lethal concentration was > 50 µM.
